From the supplement of paper PMC3334620
Whole data set: some 33,000 sequences, median “E-score (-0.5 to 0.5)” near -0.0034, cut for the highest 2% near 0.25. This is one part of the list.

target: T1, Yap3 (UniProt P38749); test: PBM E-score (8-mer binding enrichment) (E-score (-0.5 to 0.5)); higher = stronger / more preferred TF binding; conditions: protein concentration: 100 nM; construct: GST-full length
T1 sequence: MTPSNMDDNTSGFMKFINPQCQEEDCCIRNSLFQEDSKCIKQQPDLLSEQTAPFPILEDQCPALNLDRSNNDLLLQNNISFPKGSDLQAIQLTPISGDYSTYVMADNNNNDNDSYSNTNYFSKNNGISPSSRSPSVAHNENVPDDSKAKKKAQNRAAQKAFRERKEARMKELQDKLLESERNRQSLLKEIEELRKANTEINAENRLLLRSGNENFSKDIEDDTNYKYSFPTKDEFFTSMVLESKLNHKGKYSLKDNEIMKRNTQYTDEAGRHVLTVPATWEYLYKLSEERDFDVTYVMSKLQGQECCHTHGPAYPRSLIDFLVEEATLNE
Summary of the method: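 Yeast transcription factors, full-length or as DNA-binding domains, were expressed with a GST tag using PURExpress in vitro transcription/translation. At about 100-200 nM they were applied to universal all-10-mer Agilent arrays, double-stranded by primer extension on fresh or once-stripped slides. Fluorescent anti-GST detected bound protein, and masliner normalised the scans. E-scores for ungapped eight-base words, pooled with reverse complements, came from the Universal PBM Analysis Suite.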

Sequence	PBM E-score
AATTTGAC	0.194
AAGCCCCG	-0.143
GAGTACGC	-0.261
GCAGAGAC	-0.322
TTGAGCAA	-0.0128
GAGGTTGA	-0.102
CGGTTAAA	0.196
ACTGCATC	-0.0342
ATTATAAA	0.231
CCTAGCGA	-0.263
TAAACCTA	0.171
TCCGTAGA	-0.064
CAGGCTTA	-0.108
AGTGGAAC	-0.0961
CTGGGTAC	-0.178
AGCGAACC	-0.127
ACGGTAGG	-0.11
AGGTCACT	-0.244
ACGGTTGG	-0.036
CTCAACCA	-0.0178
CGACCCCA	-0.16
AGGCTAGA	-0.194
CCTTCTAG	-0.16
CTGTCTGC	-0.256
ACCAGTAC	0.00976

Sequence	PBM E-score
CACGCACC	-0.166
ACTAGGCT	-0.0412
AGGGCGCC	-0.257
CATACGGC	0.0866
GATATAGA	0.154
AATCATCC	0.0464
AAACCGTA	-0.092
ATTCGCTA	0.00111
CGATAGCA	-0.0895
ATGATCTA	0.15
CTCATCAA	0.0304
AACCTACC	-0.0143
AACCATCC	-0.0788
AATGAACG	0.114
AATACGAG	0.133
AACAAAAT	0.254
CAGGCTCC	-0.149
CGTATTAA	0.0173
ACCCTATG	-0.00051
ACAGTCCG	-0.124
GCGGGGCC	-0.322
CAGCCCAC	-0.187
ACTCTCGA	0.124
AGCTAGGG	-0.00712
CTTCTTAC	-0.0371

Sequence	PBM E-score
GCCAATAA	0.235
AAAGCTGT	0.15
ACTATCGC	-0.03
ACTAAGTC	0.00495
CCCGGCCC	-0.405
TATAAAGA	0.166
ATATAATC	0.157
AACCACGG	-0.0913
GCCTTCCC	-0.356
TCGTACGA	0.0662
GCATGGCC	-0.101
CGGCATTA	0.21
ATTGGGCC	0.12
CCCAGCGG	-0.286
CCGCTCTA	-0.0195
AGGAGGAC	-0.357
CATAGTTC	0.03
CGAACACC	-0.0337
CAATGGGG	-0.0335
CTGGGGGA	-0.308
ATTATAGC	0.0728
CTACATAC	0.157
CGGCGAGA	0.0492
ATGCCACC	-0.233
ACGATACT	-0.0359

Sequence	PBM E-score
ATGCGTAG	-0.0528
CCTGCATC	-0.0897
AATGCCAG	-0.00344
GTAGTAGA	-0.053
CAACAACA	0.251
TATATGCA	0.106
CGCCAGCA	-0.234
TAGTCGAA	0.11
AGTACGAA	0.245
CAGTGGAC	-0.093
CGGAGCAG	-0.191
ATGCCTCA	-0.0667
GCTGGCGA	-0.151
CACGTTAC	-0.0134
CTTACTTA	0.113
CTACACTA	-0.0184
GGTGTAAA	0.0305
GGCTCTGA	-0.03
GTGGGGCA	-0.0676
ATCACTTA	0.145
ATTAATCG	0.191
TCTCATCA	0.208
CTGTAGGC	-0.0117
AATTGTGG	0.0214
ATAGTTAC	0.106

Sequence	PBM E-score
AACCAACC	-0.0345
ACAGGTCG	-0.0506
CCGGCCAA	-0.192
CTACGGCA	0.13
GATTTAAC	0.215
GTCGTTCA	-0.0656
ATTATCCA	0.0641
GGTTTCTA	0.0539
CTGTGTTA	0.162
GTATGAAC	0.0322
AATCACTG	0.14
AATCCGTA	0.0489
GCACCCTA	-0.115
AATCTTTC	0.153
GACATACC	-0.0155
ACACTCGG	0.12
GCTGGGAC	-0.188
ATACACTG	0.0555
AGTTCTTA	0.0765
CTATACAG	-0.0586
CGCACGAG	-0.14
AGGTCTGG	-0.269
AAGACACT	0.1
CGCGAGCG	-0.19
ATGAGAAT	0.0726

Sequence	PBM E-score
ATATACCC	0.0393
GGTTATAC	-0.0119
CACGTCTA	0.0226
CACTGCTC	0.0346
CGGTGCGC	-0.101
AGGAAGCG	-0.067
ACGGACCT	-0.172
GGCGGGCA	-0.125
AACAGTCC	-0.0853
AGATCGCA	-0.00627
TCAGATAA	0.214
ACGCCCAG	-0.141
CCGCACCC	-0.121
CGCCGACC	-0.309
AGGCATCA	-0.261
CGAAGAGA	0.101
CCGCTAGA	-0.257
CTGGATGA	-0.094
GGGACTGA	-0.228
AGAAAGCT	0.0735
AGTAGGAG	-0.205
GGGGTAAA	0.0656
AGAAGGTG	0.029
GCAGTGGC	-0.228
CACCAGTA	0.0697

Look-ups from the entries so far.
PBM E-score with ACCCTATG is entered as -0.00051
PBM E-score with CAGCCCAC is entered as -0.187
PBM E-score with AGGAAGCG is entered as -0.067
PBM E-score with TCAGATAA is entered as 0.214

(cont.)

Sequence	PBM E-score
ACCGTTCC	0.0568
CCGTGAGC	-0.218
AGAGACGA	-0.0103
ATAGGGGC	-0.13
AGAAGAGC	-0.00967
CCGAATCG	0.00203
AGACCACA	-0.132
ACTACGCG	0.00052
GAACTGGC	-0.133
AATTATGT	0.164
AAACGTCG	-0.0414
GTTGTGGA	-0.0252
CGAAAAAC	0.0504
GGATGCAA	0.131
AAGTGCCA	-0.0862
CAAGGCTC	-0.357
CGAGCATA	0.0498
GTAACTGA	-0.0795
CCCGTCCC	-0.316
CGATCGTC	-0.0346
CCACAGTC	-0.226
CAGCGTAA	-0.0239
AAACATAT	0.305
CATTACAA	0.28
AAACTGGA	0.0413

Sequence	PBM E-score
CAGTATGG	0.014
TCAACCGA	0.152
AACCCCGA	-0.00855
TGAGCGAA	0.194
GGGCCCCC	-0.498
ACCTTAGC	0.0271
CCGTAAGA	-0.0971
CTAGAACA	0.0627
AACGTCGT	-0.0495
GTGTAGTA	0.0243
CTGGCTGA	-0.0777
AGCGTACG	-0.0792
AGGGTCAT	-0.133
GAAAGCAA	0.248
ACACGATA	0.116
AGGTAGGA	-0.0238
GACCTAAA	-0.00699
CTAGGGAG	-0.174
TGGTCCAA	-0.121
TCACCTAA	0.03
CATTCGCA	0.0508
GAATGTGA	0.0268
AGTTGGAA	0.0377
AATCGGTA	0.121
AGATCCAG	-0.0679

Sequence	PBM E-score
ATCAGTTC	-0.0212
AATCGCGT	0.156
CTCCACTA	0.0329
GAGAGCTC	-0.227
ATTAATAG	0.228
AGTCGCAA	0.0524
CTCAAAGC	0.00619
CCCACCAA	0.0694
AAGGCCCT	-0.0687
GTCAGGAA	0.0509
CAGTGTCC	-0.161
CCACCTTA	0.0924
ATAGCTTG	-0.021
GTAAAATA	0.117
ACGCTGAT	-0.0611
AACCGGCT	-0.112
CGATATCC	0.146
AATGAGCG	0.203
ATACTGCC	0.0316
